The supplement of paper PMC7858590
± gives the standard deviation of the averaged measurements. The full ranking holds about 3,800 compounds; the median of “cell shape (eccentricity) Z-score vs DMSO control” is about 1.1, and the lowest 2% start at about -4.7. The list shows a part of the results.

What follows are compounds tested on human monocyte-derived macrophages (M0) (assay: cell shape (eccentricity) Z-score vs DMSO control; higher = more elongated, M2-like morphology). Conditions: 20 µM; 24 h; macrophage state: M0 (M-CSF).

| SMILES | cell shape (Z-score) |
| --- | --- |
| O=C1OC(c2ccc(O)cc2)(c2ccc(O)cc2)c2ccccc21 | 1.01 |
| CC(=Cc1ccc(C(=O)O)cc1)c1ccc2c(c1)C(C)(C)CCC2(C)C | 7.79 |
| Nc1ncnc(Nc2ccc(Cl)cc2)n1 | 1.09 |
| COc1ccc(/C=C/C(=O)O[C@@H]2[C@@H](O)[C@@H](O)[C@H](O[C@H]3[C@@H]4C=CO[C@@H](O[C@@H]5O[C@H](CO)[C@@H](O)[C@H](O)[C@H]5O)[C@@H]4[C@@]4(CO)O[C@@H]34)O[C@H]2C)cc1 | -1.63 |
| CN/C(=C\[N+](=O)[O-])NCCSCc1ccc(CN(C)C)o1 | 1.62 |
| C[C@H]1CC2C([C@@H](O)C[C@@]3(C)C2CC[C@]3(O)C(=O)COC(=O)CCC(=O)O)[C@@]2(C)C=CC(=O)C=C12 (stereo partly specified) | 0.0575 |
| O=c1n(CCCN2CCN(c3cccc(Cl)c3)CC2)nc2ccccn12 | -2.03 |
| CC(=O)OC[C@@]12C(=O)C[C@@H](C)[C@]3(C[C@@H](c4ccoc4)OC3=O)[C@H]1CC[C@H](O)[C@]21CO1 | -1.02 |
| CCN(CCO)CCCOc1ccc2c(Nc3cc(CC(=O)Nc4cccc(F)c4)[nH]n3)ncnc2c1 | 1.97 |
| CCCc1nc(C(C)(C)O)c(C(=O)OCc2oc(=O)oc2C)n1Cc1ccc(-c2ccccc2-c2nn[nH]n2)cc1 | 1.58 |
| COc1c(O)cc2c(c1O)C(=O)OC(C)C2Oc1cc2c(c(O)c1OC)C(=O)OC(C)C2O (stereo unspecified) | 4.46 |
| O=C1C=CC(O)(/C=C/C(=O)OC[C@H]2O[C@@H](Oc3ccc(O)cc3)[C@H](O)[C@@H](OC(=O)/C=C/C3(O)C=CC(=O)C=C3)[C@@H]2O)C=C1 | -1.44 |
| c1ccc(CNc2nc(NCc3ccccc3)c3ccccc3n2)cc1 | 4.58 |
| Nc1ncnc2nc(-c3ccc(N4CCOCC4)nc3)cc(-c3cccc(Br)c3)c12 | 0.843 |
| CCCCCCCCCCCCCCCC(=O)NCCO | 0.0559 |
| Cn1cnc([N+](=O)[O-])c1Sc1[nH]cnc2ncnc1-2 | 1.32 |
| Cc1[nH]c2ccccc2c1C(Nc1ccccn1)c1ccc(Cl)cc1 (stereo unspecified) | 4.07 |
| NC12CC3CC(CC(C3)C1)C2 | 0.0325 |
| NC(=O)C1C(=O)C[C@@H]2C[C@@H]3Cc4cccc(O)c4C(=O)C3C(=O)[C@]2(O)C1=O (stereo partly specified) | 3.39 |

| SMILES | cell shape (Z-score) |
| --- | --- |
| COc1cc2nc(N(C)CCCNC(=O)C3CCCO3)nc(N)c2cc1OC (stereo unspecified) | 0.276 |
| c1ccc(-c2nnc(N3CCOCC3)nc2-c2ccccc2)cc1 | 5.41 |
| CC1OC(=O)CC2C(C(=O)O)=CC3(O)CC(C)(C)CC123 (stereo unspecified) | 2.24 |
| O=c1cc(-c2ccc(O)cc2)oc2c(C3OCC(O)C(O)C3O)c(O)c(C3OC(CO)C(O)C(O)C3O)c(O)c12 (stereo unspecified) | -0.877 |
| Cc1cc(=O)n(-c2ccccc2)n1C | 3.06 |
| COc1ccc(CO[C@H]2O[C@H](CO)[C@@H](O)[C@H](O)[C@H]2NC(C)=O)c2cc(C)oc12 | -0.347 ± 0.37 |
| Clc1ccc(COC(Cn2ccnc2)c2ccc(Cl)cc2Cl)c(Cl)c1 (stereo unspecified) | 0.543 |
| CC(C)[C@@H]1CC[C@@H](C)C[C@@H]1P(=O)(c1ccccc1)c1ccccc1 | 1.51 |
| CN(C)CCCSc1ccccc1NC(=O)/C=C/c1ccccc1 | -0.586 |
| CNC[C@@H]1Oc2ccc(NC(=O)C3CCCCC3)cc2C(=O)N([C@@H](C)CO)C[C@@H]1C | 2.88 |
| C=CC(=O)N1CCC[C@@H](n2nc(-c3ccc(Oc4ccccc4)cc3)c3c(N)ncnc32)C1 | 10.2 |
| CC1(C)CC[C@]2(C(=O)O[C@@H]3O[C@H](CO)[C@@H](O)[C@H](O)[C@H]3O)CC[C@]3(C)C(=CCC4[C@@]5(C)C[C@@H](O)[C@H](O)C(C)(C)C5CC[C@]43C)C2[C@@H]1O (stereo partly specified) | 1.97 |
| CC(=O)c1ccc(S(=O)(=O)NC(=O)NC2CCCCC2)cc1 | 1.71 |
| CC(=O)N(O)CCCCCNC(=O)CCC(=O)N(O)CCCCCNC(=O)CCC(=O)N(O)CCCCCN | 0.99 |
| Nc1ncn([C@H]2C[C@H](O)[C@@H](CO)O2)c(=O)n1 | 0.463 |
| CC(C)(C(=O)c1cccnc1)c1cccnc1 | 3.09 |
| COc1ccc2oc(-c3ccccc3OC)cc(=O)c2c1 | 6.84 |
| COC(=O)c1cc(O)cc(O)c1C(=O)c1c(O)cc(C)cc1O | 0.523 |
| CC1(C)O[C@@H]2CC3C4C[C@H](F)C5=CC(=O)C=C[C@]5(C)[C@@]4(F)[C@@H](O)C[C@]3(C)[C@]2(C(=O)CO)O1 (stereo partly specified) | -2.94 |

In the list so far, 3 have a COOH group:

| SMILES | cell shape (Z-score) |
| --- | --- |
| CC(=Cc1ccc(C(=O)O)cc1)c1ccc2c(c1)C(C)(C)CCC2(C)C | 7.79 |
| C[C@H]1CC2C([C@@H](O)C[C@@]3(C)C2CC[C@]3(O)C(=O)COC(=O)CCC(=O)O)[C@@]2(C)C=CC(=O)C=C12 (stereo partly specified) | 0.0575 |
| CC1OC(=O)CC2C(C(=O)O)=CC3(O)CC(C)(C)CC123 (stereo unspecified) | 2.24 |

Remaining list, next part.

| SMILES | cell shape (Z-score) |
| --- | --- |
| CC(=O)OCCNC(=O)c1cccnc1 | -3.76 |
| COc1c(O)cc2c(c1O)C(=O)OC(C)C(O)c1c(O)c(O)c(OC)c(O)c1C(=O)OC(C)C2O (stereo unspecified) | 0.31 |
| CC(C)=CCCC(C)(OC1OC(COC2OC(CO)C(O)C2O)C(O)C(O)C1O)C1CCC2(C)C1C(O)CC1C3(C)CCC(OC4OC(CO)C(O)C(O)C4OC4OC(CO)C(O)C(O)C4O)C(C)(C)C3CCC12C (stereo unspecified) | -0.485 |
| COc1ccc(-c2ccc3c(N4CCOCC4)nc(N4C[C@@H](C)O[C@@H](C)C4)nc3n2)cc1CO | 0.131 |
| C/C=N/N(C)C=O | 0.886 |
| CN(Cc1cnc2nc(N)nc(N)c2n1)c1ccc(C(=O)NC(CCC(=O)O)C(=O)O)cc1 (stereo unspecified) | 4.47 |
| CCOC(=O)C1=CC2(CC)CCCN3CCc4c(n1c1ccccc41)C32 (stereo unspecified) | 0.205 |
| CCC(NC(C)C)C(O)c1ccc(O)c(O)c1 (stereo unspecified) | 2.97 |
| CC(C)NC[C@H](O)COc1ccc(CC(N)=O)cc1 | 3.01 |
| O=C(O)C=Cc1ccc(Cn2ccnc2)cc1 | -1.31 |
| N#CC(=Cc1ccc(O)c(O)c1)C(N)=O | 0.0388 |
| CCC(=C/[C@H](C)C/C=C/C(C)=C/[C@@H](C)C(=O)[C@@H](C)[C@H](O)[C@@H](C)C/C(C)=C/C(=O)O)/C=C/[C@@H]1OC(=O)C=C[C@@H]1C | 5.4 |
| CCC(C)C(=O)O[C@H]1C[C@H](O)C=C2C=C[C@H](C)[C@H](CC[C@@H](O)C[C@@H](O)CC(=O)O)C21 (stereo partly specified) | -0.754 |
| COc1cc2ccc(=O)oc2c(O[C@@H]2O[C@H](CO)[C@@H](O)[C@H](O)[C@H]2O)c1O | -0.0817 |
| CCOC(=O)C(C)(C)Oc1ccc(Cl)cc1 | 1.93 |
| CN1CCN(C2=Nc3ccccc3Sc3ccc(Cl)cc32)CC1 | 0.462 |
| CNC(=O)C1OC(n2cnc3c(NCc4cccc(I)c4)ncnc32)C(O)C1O (stereo unspecified) | 0.489 |
| C=C1[C@H]2CC[C@]3(O)[C@@](CC[C@@H]4[C@](C)(C(=O)O)CCC[C@]43C)(C2)[C@H]1OC(=O)/C(C)=C\C | -0.341 |
